# Reference: the supplement of paper PMC12819154, “High-throughput peptide-centric local stability assay extends protein–ligand identification to membrane proteins, tissues and bacteria” (Nature Structural & Molecular Biology, 2025)
# By UniProt entry, the sequences of proteins in these tests, tags left out. Where a name states a change or a piece, a line headed by the entry shows the natural chain unless it says otherwise.
# UniProt Q9NXL9: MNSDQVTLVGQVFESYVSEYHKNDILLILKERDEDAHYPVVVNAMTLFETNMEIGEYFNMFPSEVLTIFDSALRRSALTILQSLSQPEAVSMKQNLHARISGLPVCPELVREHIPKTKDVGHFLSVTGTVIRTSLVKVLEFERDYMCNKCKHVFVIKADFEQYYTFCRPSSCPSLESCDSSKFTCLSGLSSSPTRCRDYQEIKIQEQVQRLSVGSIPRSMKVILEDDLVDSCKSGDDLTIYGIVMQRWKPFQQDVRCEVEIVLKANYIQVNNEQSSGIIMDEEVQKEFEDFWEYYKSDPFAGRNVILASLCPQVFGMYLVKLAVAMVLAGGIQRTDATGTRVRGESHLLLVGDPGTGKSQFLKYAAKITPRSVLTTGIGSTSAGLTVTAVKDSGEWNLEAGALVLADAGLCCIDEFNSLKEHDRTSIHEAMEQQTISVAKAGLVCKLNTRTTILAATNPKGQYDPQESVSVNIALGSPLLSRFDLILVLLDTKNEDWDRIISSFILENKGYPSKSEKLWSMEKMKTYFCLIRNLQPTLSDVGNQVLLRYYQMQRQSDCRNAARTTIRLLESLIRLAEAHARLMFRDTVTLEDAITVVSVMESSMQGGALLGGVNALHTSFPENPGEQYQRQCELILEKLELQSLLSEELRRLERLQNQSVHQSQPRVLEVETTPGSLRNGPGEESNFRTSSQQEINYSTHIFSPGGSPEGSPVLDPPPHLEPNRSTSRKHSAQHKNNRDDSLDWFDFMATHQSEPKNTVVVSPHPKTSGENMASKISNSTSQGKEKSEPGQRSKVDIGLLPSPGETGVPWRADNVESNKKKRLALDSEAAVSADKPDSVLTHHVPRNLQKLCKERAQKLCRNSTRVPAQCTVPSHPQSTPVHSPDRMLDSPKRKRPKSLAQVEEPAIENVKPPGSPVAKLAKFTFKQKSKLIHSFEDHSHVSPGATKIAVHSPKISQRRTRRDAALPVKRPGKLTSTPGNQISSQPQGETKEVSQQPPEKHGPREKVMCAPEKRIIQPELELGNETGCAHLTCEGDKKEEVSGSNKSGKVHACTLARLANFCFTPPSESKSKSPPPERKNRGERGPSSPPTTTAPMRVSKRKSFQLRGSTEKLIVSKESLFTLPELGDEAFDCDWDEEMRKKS
# UniProt Q9NV72: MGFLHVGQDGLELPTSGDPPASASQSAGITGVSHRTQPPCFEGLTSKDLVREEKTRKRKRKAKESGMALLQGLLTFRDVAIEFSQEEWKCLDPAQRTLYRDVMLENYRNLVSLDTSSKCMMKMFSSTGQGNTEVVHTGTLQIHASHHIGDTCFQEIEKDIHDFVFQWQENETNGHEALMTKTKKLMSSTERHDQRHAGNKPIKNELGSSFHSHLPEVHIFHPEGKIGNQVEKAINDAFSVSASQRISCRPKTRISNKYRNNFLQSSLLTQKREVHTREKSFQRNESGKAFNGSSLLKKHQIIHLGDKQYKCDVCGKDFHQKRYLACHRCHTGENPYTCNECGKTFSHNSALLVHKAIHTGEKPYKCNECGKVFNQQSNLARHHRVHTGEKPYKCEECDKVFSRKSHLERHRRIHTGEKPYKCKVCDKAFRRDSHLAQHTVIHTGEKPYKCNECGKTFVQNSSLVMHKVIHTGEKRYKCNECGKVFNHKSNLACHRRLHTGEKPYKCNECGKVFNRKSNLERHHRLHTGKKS
# UniProt Q9NRD1: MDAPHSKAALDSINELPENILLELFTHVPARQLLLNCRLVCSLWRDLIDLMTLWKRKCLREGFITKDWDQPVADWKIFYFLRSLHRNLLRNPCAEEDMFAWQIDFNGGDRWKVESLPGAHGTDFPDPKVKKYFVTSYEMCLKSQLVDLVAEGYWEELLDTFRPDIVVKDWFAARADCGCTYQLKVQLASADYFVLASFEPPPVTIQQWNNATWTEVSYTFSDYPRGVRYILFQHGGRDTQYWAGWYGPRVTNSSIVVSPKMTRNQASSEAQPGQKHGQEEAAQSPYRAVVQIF
# UniProt Q9NYM9: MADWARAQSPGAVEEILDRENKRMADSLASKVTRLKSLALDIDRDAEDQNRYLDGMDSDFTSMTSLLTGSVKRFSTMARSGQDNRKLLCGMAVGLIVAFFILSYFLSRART
# UniProt Q9NYS0: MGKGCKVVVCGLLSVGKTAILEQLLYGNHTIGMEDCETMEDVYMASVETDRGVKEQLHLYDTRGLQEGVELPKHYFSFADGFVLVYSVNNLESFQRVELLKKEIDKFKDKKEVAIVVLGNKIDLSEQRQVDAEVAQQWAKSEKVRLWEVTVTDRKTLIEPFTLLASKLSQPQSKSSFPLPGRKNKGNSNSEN
# UniProt Q9NX63: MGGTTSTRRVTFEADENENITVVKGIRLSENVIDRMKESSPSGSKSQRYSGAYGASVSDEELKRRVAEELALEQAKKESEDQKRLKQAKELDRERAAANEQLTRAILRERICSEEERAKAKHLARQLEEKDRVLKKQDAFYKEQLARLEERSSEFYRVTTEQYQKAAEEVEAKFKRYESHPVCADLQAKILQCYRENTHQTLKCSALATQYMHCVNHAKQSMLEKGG
# UniProt Q9NVP1: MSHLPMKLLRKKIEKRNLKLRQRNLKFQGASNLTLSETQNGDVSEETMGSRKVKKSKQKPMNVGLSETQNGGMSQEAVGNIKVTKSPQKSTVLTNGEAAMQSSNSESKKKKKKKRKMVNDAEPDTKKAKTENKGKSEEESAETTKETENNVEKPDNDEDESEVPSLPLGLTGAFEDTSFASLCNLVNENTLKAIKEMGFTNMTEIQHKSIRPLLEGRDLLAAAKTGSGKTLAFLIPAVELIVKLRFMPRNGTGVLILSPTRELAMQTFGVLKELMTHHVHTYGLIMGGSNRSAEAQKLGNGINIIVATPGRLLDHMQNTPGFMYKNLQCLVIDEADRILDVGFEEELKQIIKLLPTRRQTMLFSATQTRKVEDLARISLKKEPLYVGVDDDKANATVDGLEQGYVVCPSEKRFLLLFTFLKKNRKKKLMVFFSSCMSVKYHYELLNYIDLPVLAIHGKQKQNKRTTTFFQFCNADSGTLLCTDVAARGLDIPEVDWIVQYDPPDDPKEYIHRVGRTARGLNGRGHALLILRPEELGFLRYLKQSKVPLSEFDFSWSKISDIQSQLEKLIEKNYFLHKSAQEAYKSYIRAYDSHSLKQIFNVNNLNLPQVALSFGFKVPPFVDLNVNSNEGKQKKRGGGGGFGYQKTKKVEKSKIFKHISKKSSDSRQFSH
# UniProt Q9NYY8: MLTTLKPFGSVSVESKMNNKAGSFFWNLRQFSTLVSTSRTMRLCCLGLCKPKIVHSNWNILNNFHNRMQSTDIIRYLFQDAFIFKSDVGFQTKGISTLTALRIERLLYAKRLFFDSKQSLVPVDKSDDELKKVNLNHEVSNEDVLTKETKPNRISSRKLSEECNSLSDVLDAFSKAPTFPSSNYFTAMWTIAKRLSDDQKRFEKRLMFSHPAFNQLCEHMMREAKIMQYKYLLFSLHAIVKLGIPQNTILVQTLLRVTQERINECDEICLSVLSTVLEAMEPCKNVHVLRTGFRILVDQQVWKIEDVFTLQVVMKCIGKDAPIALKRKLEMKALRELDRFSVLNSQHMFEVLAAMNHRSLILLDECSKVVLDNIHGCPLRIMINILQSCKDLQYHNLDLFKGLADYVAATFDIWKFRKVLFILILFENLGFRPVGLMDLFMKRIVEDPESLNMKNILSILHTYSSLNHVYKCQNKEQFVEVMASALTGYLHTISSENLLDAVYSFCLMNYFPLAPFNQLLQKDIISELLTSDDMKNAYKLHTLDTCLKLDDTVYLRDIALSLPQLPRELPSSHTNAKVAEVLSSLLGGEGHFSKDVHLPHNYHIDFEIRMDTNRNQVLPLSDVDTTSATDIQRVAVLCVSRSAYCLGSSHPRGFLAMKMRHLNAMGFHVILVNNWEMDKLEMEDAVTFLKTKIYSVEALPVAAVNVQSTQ
# UniProt Q9NX38: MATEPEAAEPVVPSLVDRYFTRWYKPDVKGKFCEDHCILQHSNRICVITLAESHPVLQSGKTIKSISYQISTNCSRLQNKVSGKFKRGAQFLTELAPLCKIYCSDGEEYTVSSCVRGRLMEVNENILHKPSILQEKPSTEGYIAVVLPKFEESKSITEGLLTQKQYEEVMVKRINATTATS
# UniProt Q9NWB7: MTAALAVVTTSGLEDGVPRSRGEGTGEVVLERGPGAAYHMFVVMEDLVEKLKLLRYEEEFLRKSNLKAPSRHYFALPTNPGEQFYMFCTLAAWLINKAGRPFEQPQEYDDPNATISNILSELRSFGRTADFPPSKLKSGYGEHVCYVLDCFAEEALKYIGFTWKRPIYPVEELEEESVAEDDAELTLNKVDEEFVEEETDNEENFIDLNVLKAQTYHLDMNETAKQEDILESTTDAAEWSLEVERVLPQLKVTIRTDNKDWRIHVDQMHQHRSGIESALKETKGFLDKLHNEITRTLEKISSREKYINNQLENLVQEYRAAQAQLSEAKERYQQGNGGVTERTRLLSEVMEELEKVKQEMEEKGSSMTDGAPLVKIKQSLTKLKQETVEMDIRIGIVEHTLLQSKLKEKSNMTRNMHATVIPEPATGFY
# UniProt Q9NX70: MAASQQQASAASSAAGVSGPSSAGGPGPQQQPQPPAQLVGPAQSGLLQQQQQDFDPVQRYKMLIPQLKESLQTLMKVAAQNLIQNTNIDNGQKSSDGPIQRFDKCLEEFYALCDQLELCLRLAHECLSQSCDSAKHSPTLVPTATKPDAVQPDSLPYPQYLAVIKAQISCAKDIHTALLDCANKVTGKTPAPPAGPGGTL
# UniProt Q9NX46: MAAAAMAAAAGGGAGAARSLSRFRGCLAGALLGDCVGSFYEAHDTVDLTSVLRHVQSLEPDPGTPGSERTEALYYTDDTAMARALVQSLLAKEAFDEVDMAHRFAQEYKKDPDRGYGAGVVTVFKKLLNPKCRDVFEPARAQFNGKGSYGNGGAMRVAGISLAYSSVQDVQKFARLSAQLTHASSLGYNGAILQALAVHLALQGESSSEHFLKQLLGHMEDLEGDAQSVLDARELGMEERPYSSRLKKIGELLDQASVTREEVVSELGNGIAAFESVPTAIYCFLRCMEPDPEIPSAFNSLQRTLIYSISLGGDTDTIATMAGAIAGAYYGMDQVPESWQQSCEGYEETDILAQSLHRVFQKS
# UniProt Q9NVN3: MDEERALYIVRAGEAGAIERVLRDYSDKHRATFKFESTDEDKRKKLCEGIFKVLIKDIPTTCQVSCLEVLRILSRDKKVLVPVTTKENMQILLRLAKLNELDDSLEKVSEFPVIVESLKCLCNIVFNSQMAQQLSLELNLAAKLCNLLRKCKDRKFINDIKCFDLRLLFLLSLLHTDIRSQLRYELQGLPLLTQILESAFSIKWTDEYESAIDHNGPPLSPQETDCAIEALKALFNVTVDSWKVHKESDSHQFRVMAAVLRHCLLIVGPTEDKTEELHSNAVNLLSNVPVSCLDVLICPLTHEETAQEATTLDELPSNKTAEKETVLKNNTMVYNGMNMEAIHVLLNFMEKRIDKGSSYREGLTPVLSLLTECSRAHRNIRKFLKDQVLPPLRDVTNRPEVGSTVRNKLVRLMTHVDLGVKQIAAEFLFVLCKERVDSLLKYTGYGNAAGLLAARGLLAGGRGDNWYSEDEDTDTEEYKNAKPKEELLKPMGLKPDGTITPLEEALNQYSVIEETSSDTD
# UniProt Q9NQZ2: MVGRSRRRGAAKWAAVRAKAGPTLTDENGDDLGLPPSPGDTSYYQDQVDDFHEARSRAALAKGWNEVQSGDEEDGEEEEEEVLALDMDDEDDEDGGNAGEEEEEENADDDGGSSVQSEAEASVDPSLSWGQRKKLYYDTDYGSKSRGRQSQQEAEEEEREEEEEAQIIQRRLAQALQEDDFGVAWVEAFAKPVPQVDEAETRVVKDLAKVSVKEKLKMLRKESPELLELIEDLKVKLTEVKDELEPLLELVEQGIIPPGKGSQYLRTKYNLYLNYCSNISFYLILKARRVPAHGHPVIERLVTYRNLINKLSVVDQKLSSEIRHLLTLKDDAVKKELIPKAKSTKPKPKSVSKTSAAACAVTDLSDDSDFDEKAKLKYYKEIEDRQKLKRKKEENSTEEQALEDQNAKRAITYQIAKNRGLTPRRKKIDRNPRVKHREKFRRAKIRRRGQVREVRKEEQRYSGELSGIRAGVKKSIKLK
# UniProt Q9NY93: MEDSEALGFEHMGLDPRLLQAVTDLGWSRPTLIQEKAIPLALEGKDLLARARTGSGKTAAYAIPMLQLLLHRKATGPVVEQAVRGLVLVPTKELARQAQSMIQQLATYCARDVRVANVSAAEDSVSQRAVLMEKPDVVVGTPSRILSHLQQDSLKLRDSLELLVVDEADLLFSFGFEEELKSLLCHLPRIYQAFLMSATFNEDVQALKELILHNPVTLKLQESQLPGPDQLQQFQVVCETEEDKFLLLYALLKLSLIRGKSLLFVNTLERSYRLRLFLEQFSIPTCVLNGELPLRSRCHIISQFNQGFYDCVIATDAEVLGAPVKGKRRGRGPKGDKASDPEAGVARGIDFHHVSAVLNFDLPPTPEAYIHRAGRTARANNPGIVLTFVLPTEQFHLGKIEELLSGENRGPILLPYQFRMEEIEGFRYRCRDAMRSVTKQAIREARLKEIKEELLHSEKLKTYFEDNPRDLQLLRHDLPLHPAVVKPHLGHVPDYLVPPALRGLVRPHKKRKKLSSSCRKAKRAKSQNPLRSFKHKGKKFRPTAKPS
# This is one part of the list. Most values lie at the level of the controls, where differences are scatter.
# Compound: CN[C@@H]1C[C@H]2O[C@@](C)([C@@H]1OC)n1c3ccccc3c3c4c(c5c6ccccc6n2c5c31)C(=O)NC4 [staurosporine]
# Experiment: log2 fold change of tryptic peptide abundance, ligand vs vehicle (limited proteolysis) (log2 ratio); higher = more trypsin-susceptible (destabilized)
# Settings: ligand concentration: 20 uM; sample: K562 cleared lysate; digestion: 4 min, 22 C (HT-PELSA RT4min, Orbitrap Astral)
row,Target,log2 fold change
1,"ASF1B (peptide sequence: ENPPMKPDFSQLQR, peptide start residue: 124) (UniProt Q9NVP2)",-0.151
2,"UniProt Q9NUP9 (peptide sequence: VLQSEFCNAVR, peptide start residue: 41)",-0.0611
3,"LYAR (peptide sequence: HSEVETDSKK, peptide start residue: 275) (UniProt Q9NX58)",0.356
4,"UTP6 (peptide sequence: RELEIESQTEEQPTTK, peptide start residue: 280) (UniProt Q9NYH9)",-0.978
5,"MCM9 (peptide sequence: LALDSEAAVSADKPDSVLTHHVPR, peptide start residue: 823) (UniProt Q9NXL9)",-0.671
6,"UCKL1 (peptide sequence: QAEKSETACEDRSNAESLDR, peptide start residue: 27) (UniProt Q9NWZ5)",-1.23
7,"UniProt Q9NV72 (peptide sequence: VFNQQSNLAR, peptide start residue: 334)",0.5
8,"FGFR1OP2 (peptide sequence: LRDHDDAAESLIEQTTALNKR, peptide start residue: 19) (UniProt Q9NVK5)",-0.697
9,"FBXO6 (peptide sequence: NQASSEAQPGQK, peptide start residue: 264) (UniProt Q9NRD1)",0.789
10,"DNAJC17 (peptide sequence: MQQEDQEGPPT, peptide start residue: 294) (UniProt Q9NVM6)",-0.0888
11,"CDKN2AIP (peptide sequence: NSSAVEQDHAK, peptide start residue: 150) (UniProt Q9NXV6)",0.156
12,"UniProt Q9NYJ8 (peptide sequence: NMSGQVSMGPAFIHHHPPK, peptide start residue: 421)",0.202
13,"BET1L (peptide sequence: AQSPGAVEEILDRENK, peptide start residue: 7) (UniProt Q9NYM9)",-0.559
14,"UniProt Q9NVH0 (peptide sequence: LGEEVNGEATESQQKPR, peptide start residue: 300)",-0.646
15,"ZNF275 (peptide sequence: VLLVQHQR, peptide start residue: 114) (UniProt Q9NSD4)",0.524
16,"NKIRAS1 (peptide sequence: VVVCGLLSVGK, peptide start residue: 7) (UniProt Q9NYS0)",-0.536
17,"OCIAD1 (peptide sequence: KLENSPLGEALR, peptide start residue: 104) (UniProt Q9NX40)",0.572
18,"UniProt Q9NRJ4 (peptide sequence: TAQTSGPNPLK, peptide start residue: 1139)",0.463
19,"CHCHD3 (peptide sequence: VAEELALEQAK, peptide start residue: 66) (UniProt Q9NX63)",-0.339

# Taken from above:
# log2 fold change, ZNF275 (peptide sequence: VLLVQHQR, peptide start residue: 114) (UniProt Q9NSD4) reads 0.524
# log2 fold change, UniProt Q9NUP9 (peptide sequence: VLQSEFCNAVR, peptide start residue: 41) reads -0.0611

# (cont.)

row,Target,log2 fold change
1,"DDX18 (peptide sequence: QKPMNVGLSETQNGGMSQEAVGNIK, peptide start residue: 58) (UniProt Q9NVP1)",-1.04
2,"FAM49B (peptide sequence: EAIQHPADEKLQEK, peptide start residue: 65) (UniProt Q9NUQ9)",-0.111
3,"SLTM (peptide sequence: SSASGYGSR, peptide start residue: 922) (UniProt Q9NWH9)",-0.441
4,"FASTKD2 (peptide sequence: QSLVPVDKSDDELK, peptide start residue: 118) (UniProt Q9NYY8)",-0.313
5,"MRPL17 (peptide sequence: QSQEASNHSSHTAQTPGI, peptide start residue: 158) (UniProt Q9NRX2)",-0.095
6,"POLR3E (peptide sequence: LANGLPLGR, peptide start residue: 530) (UniProt Q9NVU0)",-0.121
7,"UniProt Q9NX38 (peptide sequence: QYEEVMVKR, peptide start residue: 165)",-0.861
8,"NLRP2 (peptide sequence: KPLSLGITRK, peptide start residue: 104) (UniProt Q9NX02)",-1.12
9,"IFT57 (peptide sequence: GEGTGEVVLER, peptide start residue: 22) (UniProt Q9NWB7)",-0.763
10,"MED29 (peptide sequence: ESLQTLMK, peptide start residue: 69) (UniProt Q9NX70)",-0.149
11,"ZCCHC3 (peptide sequence: GHAFAQCPK, peptide start residue: 379) (UniProt Q9NUD5)",-0.326
12,"PRDM10 (peptide sequence: IEEVPELTLPIIKPNR, peptide start residue: 755) (UniProt Q9NQV6)",0.219
13,"UniProt Q9NV06 (peptide sequence: FQHYPHIK, peptide start residue: 381)",0.64
14,"FBXO28 (peptide sequence: HADILAAVETR, peptide start residue: 139) (UniProt Q9NVF7)",0.958
15,"ADPRHL2 (peptide sequence: ALVQSLLAKEAFDEVDMAHR, peptide start residue: 84) (UniProt Q9NX46)",0.294
16,"RIC8B (peptide sequence: DQVLPPLR, peptide start residue: 386) (UniProt Q9NVN3)",0.442
17,"UTP3 (peptide sequence: VPAHGHPVIER, peptide start residue: 290) (UniProt Q9NQZ2)",0.553
18,"DDX56 (peptide sequence: GLVLVPTKELAR, peptide start residue: 85) (UniProt Q9NY93)",0.321
